PubChem BioAssay AID1224826, NIAID | 2016
The whole screen tested about 17,000 reagents; below is a random part of them. Of all reagents, about 1,110 (6.6%) got an active call. 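Active means lowered or raised reporter signal; replicate intensities are raw and not normalised per plate.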 Unmarked entries are inactive. The numbers tell different reagents against one gene apart. Further read-outs or replicates are left out here.

- Screen: 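Regulators of Tlr4 signalling leading to Tnf-alpha expression in macrophages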 (primary screen)
- Cell system: RAW264.7 G9 macrophages from mouse bearing reporters for p65 (GFP) and the Tnf promoter (mCherry)
- Knock-down reagent: siRNA pool against mouse genes, 100 nM
- Time to read-out: 16 h of LPS stimulation, after 2 days of siRNA transfection
- Challenge: bacterial lipopolysaccharide (Salmonella minnesota R595), 10 ng/ml
- Read-out: 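Imaged Tnf reporter mCherry in nuclei, minus background, normalised per plate to the median and expressed as robust z-scores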
- Scale: Tnf reporter robust z-score: higher = stronger Tnf promoter reporter signal after LPS
- Call rule: 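a well counts as active at a score of -1.3 or below (Tlr4 knock-down control median) or above 3 (raised signal); controls and wells holding fewer than 50 cells are excluded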
- Meaning of the calls: active = Tnf reporter clearly lowered or raised; inactive = no clear change in Tnf reporter

The first 7 entries, to show the layout:
| gene | reagent no. | Tnf reporter robust z-score | fewer than 50 cells in well |
| --- | --- | --- | --- |
| Fbxo22 (F-box protein 22) | 1 | 0.59 | enough cells in well |
| Smarca4 | 1 | 0.27 | enough cells in well |
| Cd276 (CD276 antigen) | 1 | -0.94 | enough cells in well |
| Apba2 (amyloid beta precursor protein binding family A member 2) | 1 | 0.2 | enough cells in well |
| Lbx2 (ladybird homeobox 2) | 1 | -0.01 | enough cells in well |
| Slc39a11 | 1 | – | fewer than 50 cells per well; well left out of calls |
| Fgl2 (fibrinogen-like protein 2) | 1 | 0.76 | enough cells in well |

Main list, from the start:
| gene | reagent no. | Tnf reporter robust z-score | fewer than 50 cells in well |
| --- | --- | --- | --- |
| Fbxo22 (F-box protein 22) | 1 | 0.59 | enough cells in well |
| Smarca4 | 1 | 0.27 | enough cells in well |
| Cd276 (CD276 antigen) | 1 | -0.94 | enough cells in well |
| Apba2 (amyloid beta precursor protein binding family A member 2) | 1 | 0.2 | enough cells in well |
| Lbx2 (ladybird homeobox 2) | 1 | -0.01 | enough cells in well |
| Slc39a11 | 1 | – | fewer than 50 cells per well; well left out of calls |
| Fgl2 (fibrinogen-like protein 2) | 1 | 0.76 | enough cells in well |
| Ifrd2 (interferon-related developmental regulator 2) | 1 | -1.04 | enough cells in well |
| Agfg2 (ArfGAP with FG repeats 2) | 1 | -0.36 | enough cells in well |
| Chrac1 (chromatin accessibility complex 1) | 1 | 0.88 | enough cells in well |
| St8sia2 (ST8 alpha-N-acetyl-neuraminide alpha-2,8-sialyltransferase 2) | 1 | 5.23 (active) | enough cells in well |
| Ccdc125 (coiled-coil domain containing 125) | 1 | – | fewer than 50 cells per well; well left out of calls |
| Mterf1b (mitochondrial transcription termination factor 1b) | 1 | -0.57 | enough cells in well |
| Snrnp40 (small nuclear ribonucleoprotein 40 (U5)) | 1 | 0.83 | enough cells in well |
| Tbx15 (T-box 15) | 1 | 1.24 | enough cells in well |
| Map3k7 (mitogen-activated protein kinase kinase kinase 7) | 1 | – | fewer than 50 cells per well; well left out of calls |
| D17H6S56E-5 (DNA segment, Chr 17, human D6S56E 5) | 1 | -0.56 | enough cells in well |
| Arhgef4 (Rho guanine nucleotide exchange factor 4) | 1 | 2.14 | enough cells in well |
| Arhgef4 (Rho guanine nucleotide exchange factor 4) | 2 | -0.15 | enough cells in well |
| Thsd4 (thrombospondin, type I, domain containing 4) | 1 | -0.55 | enough cells in well |
| Fstl5 (follistatin-like 5) | 1 | -0.24 | enough cells in well |
| Tent5b (terminal nucleotidyltransferase 5B) | 1 | – | fewer than 50 cells per well; well left out of calls |
| Ddx11 (DEAD/H box helicase 11) | 1 | -0.15 | enough cells in well |
| Or8b48 (olfactory receptor family 8 subfamily B member 48) | 1 | 1.97 | enough cells in well |
| Evc (EvC ciliary complex subunit 1) | 1 | -0.47 | enough cells in well |
| Nucleolin (nucleolin multifunctional protein) | 1 | -0.37 | enough cells in well |
| Pde6b (phosphodiesterase 6B, cGMP, rod receptor, beta polypeptide) | 1 | -0.86 | enough cells in well |
| Nkain4 (Na+/K+ transporting ATPase interacting 4) | 1 | -0.3 | enough cells in well |
| Fam120c (family with sequence similarity 120, member C) | 1 | 0.32 | enough cells in well |
| Nsun2 (NOL1/NOP2/Sun domain family member 2) | 1 | -0.09 | enough cells in well |
| Ncaph (non-SMC condensin I complex, subunit H) | 1 | -0.79 | enough cells in well |
| Amotl2 (angiomotin-like 2) | 1 | -1.53 (active) | enough cells in well |
| Fbxo9 (F-box protein 9) | 1 | -0.61 | enough cells in well |
| Cyp4f39 (cytochrome P450, family 4, subfamily f, polypeptide 39) | 1 | – | fewer than 50 cells per well; well left out of calls |
| Eif2ak4 (eukaryotic translation initiation factor 2 alpha kinase 4) | 1 | 0.81 | enough cells in well |
| Nppb (natriuretic peptide type B) | 1 | -1.41 (active) | enough cells in well |
| Gabra5 (gamma-aminobutyric acid type A receptor subunit alpha 5) | 1 | -0.82 | enough cells in well |
| 4930524B15Rik (RIKEN cDNA 4930524B15 gene) | 1 | -0.32 | enough cells in well |
| Riok3 (RIO kinase 3) | 1 | 0.25 | enough cells in well |
| Trpv6 | 1 | -0.04 | enough cells in well |
| Triobp (TRIO and F-actin binding protein) | 1 | 0.3 | enough cells in well |
| Ccl19 (C-C motif chemokine ligand 19) | 1 | 0.22 | enough cells in well |
| Zfp420 (zinc finger protein 420) | 1 | -0.23 | enough cells in well |
| Ndufb5 (NADH:ubiquinone oxidoreductase subunit B5) | 1 | 0.1 | enough cells in well |
| Dhx29 (DExH-box helicase 29) | 1 | -0.7 | enough cells in well |
| Cask (calcium/calmodulin dependent serine protein kinase) | 1 | -1.01 | enough cells in well |
| Apobec3 | 1 | 0.04 | enough cells in well |
| Hmgn5 (high-mobility group nucleosome binding domain 5) | 1 | 1.45 | enough cells in well |
| Cars1 (cysteinyl-tRNA synthetase 1) | 1 | -0.14 | enough cells in well |
| Rrp15 (ribosomal RNA processing 15 homolog) | 1 | 0.67 | enough cells in well |
| Pgpep1 (pyroglutamyl-peptidase I) | 1 | -0.55 | enough cells in well |
| Tspan11 (tetraspanin 11) | 1 | -0.62 | enough cells in well |
| Qprt (quinolinate phosphoribosyltransferase) | 1 | 0.24 | enough cells in well |
| Adamts18 (ADAM metallopeptidase with thrombospondin type 1 motif 18) | 1 | -0.3 | enough cells in well |
| Ccdc22 (coiled-coil domain containing 22) | 1 | 0.27 | enough cells in well |
| Prm2 (protamine 2) | 1 | -0.84 | enough cells in well |
| Atg4d (autophagy related 4D, cysteine peptidase) | 1 | 2.62 | enough cells in well |
| Pcsk4 (proprotein convertase subtilisin/kexin type 4) | 1 | – | fewer than 50 cells per well; well left out of calls |
